# Results published in PMC7280311.
# Protein sequences, listed by entry. Tags and fused reporters are not part of them. Residues count along the entry.
# UniProt Q9BXM7, residues 78-581: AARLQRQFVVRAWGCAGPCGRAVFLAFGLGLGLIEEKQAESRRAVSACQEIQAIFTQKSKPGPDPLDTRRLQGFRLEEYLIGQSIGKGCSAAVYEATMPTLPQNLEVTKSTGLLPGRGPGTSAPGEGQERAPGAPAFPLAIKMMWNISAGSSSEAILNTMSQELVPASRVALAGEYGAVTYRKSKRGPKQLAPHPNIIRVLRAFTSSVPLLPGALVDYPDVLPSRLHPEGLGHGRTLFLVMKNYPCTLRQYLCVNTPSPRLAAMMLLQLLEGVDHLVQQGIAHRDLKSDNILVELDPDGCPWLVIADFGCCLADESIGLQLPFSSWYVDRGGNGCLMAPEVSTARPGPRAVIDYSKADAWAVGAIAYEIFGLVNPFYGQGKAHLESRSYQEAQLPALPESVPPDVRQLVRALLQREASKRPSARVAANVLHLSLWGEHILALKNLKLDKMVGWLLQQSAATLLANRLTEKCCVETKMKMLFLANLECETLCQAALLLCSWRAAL
# UniProt O14746: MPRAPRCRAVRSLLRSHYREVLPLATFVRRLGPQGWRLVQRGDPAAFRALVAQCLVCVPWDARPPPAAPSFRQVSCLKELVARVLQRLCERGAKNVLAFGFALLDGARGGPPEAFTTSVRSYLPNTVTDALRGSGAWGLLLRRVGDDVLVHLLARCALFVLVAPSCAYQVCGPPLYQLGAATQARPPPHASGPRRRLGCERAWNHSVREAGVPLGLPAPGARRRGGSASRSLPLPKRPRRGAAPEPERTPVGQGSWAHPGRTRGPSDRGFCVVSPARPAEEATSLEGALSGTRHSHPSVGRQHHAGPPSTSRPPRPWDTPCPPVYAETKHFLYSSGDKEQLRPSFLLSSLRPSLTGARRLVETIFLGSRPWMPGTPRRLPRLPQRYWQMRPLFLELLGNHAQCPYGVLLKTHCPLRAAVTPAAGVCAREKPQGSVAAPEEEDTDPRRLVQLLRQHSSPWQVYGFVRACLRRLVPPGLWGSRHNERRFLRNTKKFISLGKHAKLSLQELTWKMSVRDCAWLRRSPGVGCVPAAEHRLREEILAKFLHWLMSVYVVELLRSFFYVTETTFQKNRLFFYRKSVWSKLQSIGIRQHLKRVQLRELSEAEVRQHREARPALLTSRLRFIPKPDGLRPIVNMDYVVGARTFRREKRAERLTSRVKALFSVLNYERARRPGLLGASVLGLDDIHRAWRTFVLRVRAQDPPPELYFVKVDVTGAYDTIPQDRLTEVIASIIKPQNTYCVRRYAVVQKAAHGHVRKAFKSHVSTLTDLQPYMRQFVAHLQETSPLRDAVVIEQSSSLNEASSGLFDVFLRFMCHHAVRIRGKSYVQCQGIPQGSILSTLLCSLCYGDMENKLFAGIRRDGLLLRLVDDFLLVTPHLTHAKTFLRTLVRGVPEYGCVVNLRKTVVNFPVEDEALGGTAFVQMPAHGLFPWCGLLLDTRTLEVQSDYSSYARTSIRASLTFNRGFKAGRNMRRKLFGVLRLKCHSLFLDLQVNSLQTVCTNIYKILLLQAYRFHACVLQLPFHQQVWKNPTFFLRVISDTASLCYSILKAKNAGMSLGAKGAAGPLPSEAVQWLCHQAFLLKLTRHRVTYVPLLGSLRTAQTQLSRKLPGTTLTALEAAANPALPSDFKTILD
# These are yes or no findings as the source states them, for the method shown. Binding seen in cells or lysates may run through a third protein. Some entries that bind do so weakly or less than the wild type. For some assays here: Where a sequence is shown, tags or fusion partners need not be part of it.
# Key:
# [1] = biological target: T1, FLAG-tagged mitochondrial processing peptidase β (FLAG-MPPβ) (UniProt O75439); assay: co-IP; HEK293 cells transfected (24 h or 48 h) with FLAG-MPPβ and Myc-PINK1 or hTERT-HA; total cell lysates immunoprecipitated with anti-FLAG antibody, immunoblotted
# T1 sequence: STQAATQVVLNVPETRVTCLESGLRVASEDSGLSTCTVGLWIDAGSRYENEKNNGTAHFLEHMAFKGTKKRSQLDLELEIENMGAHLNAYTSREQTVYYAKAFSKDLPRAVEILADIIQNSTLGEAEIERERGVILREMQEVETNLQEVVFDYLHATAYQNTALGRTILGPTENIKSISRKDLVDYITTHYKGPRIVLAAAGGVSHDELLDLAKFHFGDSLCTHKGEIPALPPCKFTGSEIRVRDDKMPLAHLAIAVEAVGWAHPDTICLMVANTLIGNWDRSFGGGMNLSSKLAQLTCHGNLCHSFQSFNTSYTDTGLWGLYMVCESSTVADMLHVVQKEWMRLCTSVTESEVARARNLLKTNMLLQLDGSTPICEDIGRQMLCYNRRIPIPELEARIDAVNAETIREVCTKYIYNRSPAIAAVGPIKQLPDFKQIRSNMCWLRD
# [2] = biological target: endogenous PINK1 (SH-SY5Y cells) (human (endogenous in SH-SY5Y)) (UniProt Q9BXM7); assay: co-IP; SH-SY5Y cell lysates immunoprecipitated with anti-PINK1 IgG (pre-immune IgG as negative control), immunoblotted; endogenous proteins
binding [1],binding [2],Substance
binds,,HA-tagged human telomerase reverse transcriptase (hTERT-HA) (from UniProt O14746 1-1132)
,binds,endogenous hTERT (SH-SY5Y cells) (from UniProt O14746 1-1132)
